# Whole data set: some 33,000 sequences, median “E-score (-0.5 to 0.5)” near -0.0059, cut for the highest 2% near 0.26. Some of the results follow.
# Molecular target: T1, Cin5 (UniProt P40917)
# T1 sequence: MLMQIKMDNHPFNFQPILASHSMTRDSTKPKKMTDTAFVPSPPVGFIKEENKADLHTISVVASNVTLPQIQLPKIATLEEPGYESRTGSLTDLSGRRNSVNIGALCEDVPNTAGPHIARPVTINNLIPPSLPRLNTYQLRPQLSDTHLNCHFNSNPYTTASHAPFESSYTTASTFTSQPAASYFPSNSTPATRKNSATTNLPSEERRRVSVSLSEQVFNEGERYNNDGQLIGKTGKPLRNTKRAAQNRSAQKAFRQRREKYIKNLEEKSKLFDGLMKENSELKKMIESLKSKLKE
# Assay: PBM E-score (8-mer binding enrichment) (E-score (-0.5 to 0.5)); higher = stronger / more preferred TF binding
# Settings: protein concentration: 100 nM; construct: GST-full length
# Outline: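 Universal all-10-mer Agilent arrays, double-stranded by primer extension on fresh or once-stripped slides, were probed with about 100-200 nM GST-tagged yeast transcription factors made by PURExpress. Fluorescent anti-GST detected bound protein, and masliner normalised the scans. E-scores from the Universal PBM Analysis Suite were given to each ungapped eight-base word pooled with its reverse complement.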
row,Sequence,PBM E-score
1,TGACAGAA,0.0176
2,AACAGGTC,-0.194
3,CCGATAAA,0.0523
4,CACAGACA,-0.0152
5,GGGTGATA,0.00865
6,CTCCTAAG,-0.173
7,AGGGGCCG,-0.279
8,ATGCATTG,0.0335
9,AAACTGGG,-0.0298
10,CTATGCCC,-0.127
11,ATTACGCA,0.25
12,ATTCCATG,0.156
13,CGAGGTCC,-0.175
14,AAACCTCT,0.0865
15,GACCATCC,-0.11
16,GATATACA,0.138
17,ACTCCGTG,-0.0119
18,AGAGTCCG,-0.195
19,ACCTTGTC,-0.156
20,AGAGTTCC,-0.156
21,CCTTGGTA,-0.0422
22,AGCACTAA,0.057
23,AGGTAGGC,-0.0632
24,CACGTCGA,-0.0392
25,CATTGAGG,-0.0654

row,Sequence,PBM E-score
1,CGGGATTC,0.0661
2,AACGCTAA,-0.114
3,CTTTGGTC,0.0474
4,AGTTCTCC,-0.165
5,GCTTGTAA,0.0106
6,CTAAATCC,0.049
7,ATCCATGG,-0.0762
8,CGTATATA,0.231
9,CTCACAAG,-0.0133
10,GAGATCAA,0.157
11,AAGCTGAT,0.209
12,CCCCGAAG,-0.0267
13,CCTATAGA,-0.12
14,ATGTTTCA,0.0393
15,GAAGGGAC,-0.213
16,AAGACCAT,0.0599
17,CCGGGACC,-0.0381
18,GGATCAAA,0.0839
19,AAAGACGA,0.036
20,GGATCGCC,-0.16
21,AGGGAGAG,-0.136
22,GACAGGTA,-0.00656
23,CACAGCAC,-0.0377
24,ACAAGTAC,0.0459
25,GGCTACAC,-0.205

row,Sequence,PBM E-score
1,AGGACAAG,-0.0481
2,AATTTTCG,-0.0119
3,CCAACACC,-0.173
4,AAAACTCC,-0.105
5,AAAGTGTG,-0.00283
6,GTCGTAAA,0.00493
7,AGAACAAT,0.24
8,CGTATAGC,0.00345
9,ATTGGGAG,-0.0663
10,TAGCAATA,0.111
11,ACCAAAGA,0.106
12,CACTACTC,0.0701
13,AATATTTA,0.217
14,ATGCACTG,0.0128
15,GGCATTGA,-0.00943
16,AAATTCGA,-0.111
17,AGATCGAC,-0.0831
18,TCCACACA,0.0716
19,CTAAAAAG,-0.107
20,CAGTGTCG,-0.141
21,GCCAAGGC,-0.223
22,CCAAATGA,0.155
23,GCAGTCAA,-0.121
24,AGCTGGGC,-0.117
25,GATCATTA,0.163

row,Sequence,PBM E-score
1,AGCGGAAT,0.0824
2,CGAACGCC,-0.133
3,ACACGGTC,-0.197
4,AGTTACAG,0.076
5,CACGATAG,0.139
6,CCTGAATA,0.0939
7,CACACAGC,0.0029
8,AATATTGC,0.235
9,AATGACGA,0.0266
10,AGCGCTCA,-0.137
11,CCTTGTCA,-0.0326
12,AAATGTGA,0.0813
13,AGATACTG,0.219
14,ACTCTCAC,0.0634
15,AATTGCGT,0.135
16,CATAATAA,0.0985
17,ACCGTATA,-0.0584
18,ATAGAAAA,0.199
19,AAGCCGCT,0.0612
20,AGACGGAT,0.152
21,CAGAGGCA,-0.109
22,CGAATTCG,-0.0651
23,GAACGCGA,0.176
24,AGAGCAGA,0.027
25,CGCGCACC,-0.0386

row,Sequence,PBM E-score
1,ATATGTAC,0.21
2,CGTCCAGA,-0.219
3,GCATATCC,0.0386
4,AGTATAAT,0.301
5,CTCGCCGA,-0.0319
6,ACGTGTAC,-0.126
7,AGGCGTTA,-0.05
8,CAATCCAA,0.0285
9,ATCGGATC,0.00099
10,CAAAGATA,0.12
11,TACTACCA,-0.0521
12,CCGTGCAG,0.0325
13,GACTACTC,0.0304
14,ATCTTGCA,0.203
15,CCGGACAC,-0.205
16,GAAGCACC,-0.0572
17,TGGCCCCA,-0.103
18,CCTAAGAG,-0.0253
19,ACTTGGGC,-0.139
20,AGAGAACC,-0.217
21,AAATCTTC,-0.00535
22,GAATTCCA,0.173
23,CCGATCGA,-0.0237
24,AGTCACGC,-0.0563
25,ACCTGCCT,-0.141

row,Sequence,PBM E-score
1,ATACGGAA,0.232
2,CTAGATAG,-0.141
3,TCCCAGGA,-0.158
4,GATAGAAA,0.126
5,ACCGCGAC,-0.104
6,CCGTAGAA,-0.223
7,AAGCTTGC,-0.0817
8,GGACGCTA,-0.24
9,GGCCCATA,-0.102
10,CACGTGGG,-0.172
11,AGAAAATA,0.191
12,CCCGGTCC,-0.17
13,TTAAGAAA,-0.116
14,AAAAATAA,0.215
15,GCTCAAGC,-0.167
16,ATTCCCGG,0.243
17,AGGTAGAG,-0.22
18,CGGCAGTA,-0.0949
19,ACAGCGAC,-0.204
20,ACTTAAAA,-0.0447
21,ATGCGCGC,0.193
22,GTTATCGA,0.0833
23,ACGGTTGC,-0.163
24,AAGGGGCC,-0.118
25,CTGGCCAA,-0.0305

row,Sequence,PBM E-score
1,CGGCTATC,-0.147
2,CCCATAGG,-0.115
3,CACATTCC,0.00691
4,GTATCAAA,0.138
5,CCTTGGCA,-0.245
6,AAGCCCTA,-0.147
7,CTTAACAC,0.152
8,CCCTGCAA,-0.132
9,ACGGGAGT,0.0416
10,AGTTATTG,0.184
11,CACCTCGC,0.0546
12,CAAGCGTA,-0.111
13,AACTATTC,0.0254
14,TGTGGAAA,0.153
15,ATCTTTTC,0.119
16,ACTCCACC,-0.0503
17,GGTGGTCA,-0.0303
18,AGGCAGAG,-0.132
19,ATTCCCGC,0.165
20,CCCGCTGA,0.044
21,CCCTATTC,0.0305
22,AGGAGCCG,-0.317

# — the supplement of paper PMC3334620
